Laboratory results from patent US20200172486A1, “PYRIDONE COMPOUNDS AND AGRICULTURAL AND HORTICULTURAL FUNGICIDES CONTAINING THE SAME AS ACTIVE INGREDIENTS” (MITSUI CHEMICALS AGRO, INC., priority 2017, published 2020).
Some results were stated once for a whole list of compounds, not compound by compound. For at least one compound, name, drawing or mass did not settle the structure.

Legend:
[1] = test system: cabbage alternaria sooty spot fungi (Alternaia brassicicola); experiment: Test Example C: cabbage alternaria sooty spot, spray test on potted cabbage plants; settings: cabbage (Shikidori), 250 ppm spray 2.5 ml/pot before inoculation, 2 to 3 days after inoculation
[2] = test system: cucumber anthracnose fungi (Colletotrichum orbiculare); experiment: Test Example H: cucumber anthracnose, spray test on potted cucumber plants; settings: cucumber (Sagami Hanjiro), 250 ppm spray 2.5 ml/pot before inoculation, 6 to 10 days after inoculation
[3] = test system: grape downy mildew fungus (Plasmopara viticola); experiment: Test Example G: grape downy mildew, spray test on potted grape plants; settings: grape (Neomuscat), 250 ppm spray 2.5 ml/pot before inoculation, 7 to 10 days after inoculation
[4] = test system: gray mold fungi (Botrytis cinerea); experiment: Test Example B: tomato gray mold, spray test on potted tomato plants; settings: tomato (Oogata Fukuju), 250 ppm spray 2.5 ml/pot before inoculation, 2 to 3 days after inoculation

CCN(C(=O)OC(C)(C)C)c1cc(Cl)c(=O)n(CC)c1-c1c(F)cccc1F [Compound 9]
control value [1]: > 50%
control value [2]: > 50%
control value [3]: > 50%

CCn1c(-c2ccc(Br)cc2)c(NC)cc(Cl)c1=O [Compound 90]
control value [1]: > 50%
control value [2]: > 50%
control value [3]: > 50%

CCn1c(-c2c(F)cc(F)cc2F)c(N(C)c2cccc(OC)c2)cc(Br)c1=O [Compound 179]
control value [1]: > 50%
control value [3]: > 50%

CCn1c(-c2ccc(OC)cc2)c(NC)cc(Cl)c1=O [Compound 93]
control value [1]: > 50%
control value [2]: > 50%
control value [3]: > 50%

CCn1c(-c2c(F)cccc2F)c(N(CC(F)(F)F)CC(F)(F)F)cc(Cl)c1=O [Compound 209]
control value [1]: > 50%
control value [4]: > 50%
control value [3]: > 50%

C#CCN(CC)c1cc(Br)c(=O)n(CC)c1-c1ccccc1 [Compound 190]
control value [4]: > 50%
control value [3]: > 50%

CCn1c(-c2ccccc2F)c(N(C)CC(F)F)cc(Br)c1=O [compound 422]
control value [1]: > 50%
control value [2]: > 50%
control value [3]: > 50%

CCn1c(-c2ccc(F)cc2Cl)c(NCC(F)F)cc(Cl)c1=O [compound 309]
control value [1]: > 50%
control value [3]: > 50%

CCn1c(-c2c(F)cc(F)cc2F)c(NC(=O)OC)cc(Cl)c1=O [Compound 238]
control value [1]: > 50%
control value [2]: > 50%
control value [3]: > 50%

CCn1c(-c2c(F)cccc2F)c(NC(C)C(C)C)cc(Cl)c1=O (centres unmarked) [Compound 182]
control value [1]: > 50%
control value [3]: > 50%

CCn1c(-c2c(F)cc(F)cc2OC)c(NC)cc(Br)c1=O [Compound 73]
control value [1]: > 50%
control value [2]: > 50%
control value [3]: > 50%

CCn1c(-c2ccc(F)cc2F)c(NC(C)C)cc(Br)c1=O [Compound 263]
control value [1]: > 50%
control value [3]: > 50%

CCn1c(-c2ccc(F)cc2Cl)c(NC)cc(Cl)c1=O [Compound 33]
control value [1]: > 50%
control value [2]: > 50%
control value [3]: > 50%

CCn1c(-c2ccc(F)cc2Cl)c(N(C)c2ccccc2)cc(Cl)c1=O [Compound 288]
control value [1]: > 50%
control value [2]: > 50%
control value [3]: > 50%

CCn1c(-c2ccc(F)cc2Br)c(NC(C)C)cc(Br)c1=O [Compound 283]
control value [2]: > 50%
control value [4]: > 50%
control value [3]: > 50%

CCn1c(-c2ccc(F)cc2)c(N)cc(Br)c1=O [Compound 95]
control value [1]: > 50%
control value [2]: > 50%
control value [3]: > 50%

C#CCN(CC)c1cc(Cl)c(=O)n(CC)c1-c1ccccc1 [Compound 189]
control value [4]: > 50%
control value [3]: > 50%

CCn1c(-c2ccc(OC)cc2Cl)c(N)cc(Cl)c1=O [Compound 47]
control value [2]: > 50%
control value [4]: > 50%
control value [3]: > 50%

CCNc1cc(Br)c(=O)n(CC)c1-c1ccc(F)cc1Br [compound 299]
control value [1]: > 50%
control value [2]: > 50%
control value [3]: > 50%

CCNc1cc(Br)c(=O)n(CC)c1-c1ccc(F)cc1F [Compound 275]
control value [1]: > 50%
control value [3]: > 50%

CCCn1c(-c2ccc(F)cc2)c(N)cc(Cl)c1=O [Compound 211]
control value [1]: > 50%
control value [3]: > 50%

CCNc1cc(Cl)c(=O)n(CC)c1-c1ccc(OC)cc1 [Compound 94]
control value [1]: > 50%
control value [2]: > 50%
control value [3]: > 50%

CCn1c(-c2ccc(Br)cc2)c(N)cc(Cl)c1=O [Compound 89]
control value [1]: > 50%
control value [2]: > 50%
control value [3]: > 50%

C#Cc1cc(N)c(-c2ccc(F)cc2)n(CC)c1=O [Compound 97]
control value [1]: > 50%
control value [2]: > 50%
control value [3]: > 50%

CCNc1cc(Br)c(=O)n(CC)c1-c1c(F)cc(F)cc1F [Compound 62]
control value [1]: > 50%
control value [2]: > 50%
control value [3]: > 50%

CCNc1cc(Cl)c(=O)n(CC)c1-c1ccc(F)cc1Br [compound 298]
control value [1]: > 50%
control value [2]: > 50%
control value [3]: > 50%

CCn1c(-c2ccc(OC)cc2Cl)c(NC)cc(Cl)c1=O [Compound 48]
control value [2]: > 50%
control value [4]: > 50%
control value [3]: > 50%

CCn1c(-c2ccccc2Br)c(N)cc(Br)c1=O [compound 431]
control value [2]: > 50%
control value [4]: > 50%
control value [3]: > 50%

CCn1c(-c2ccc(F)cc2Br)c(N2CCCC2)cc(Cl)c1=O [compound 313]
control value [1]: > 50%
control value [2]: > 50%
control value [3]: > 50%

CCn1c(-c2ccc(F)cc2Br)c(NC(C)C)cc(Cl)c1=O [Compound 282]
control value [2]: > 50%
control value [4]: > 50%
control value [3]: > 50%

CCNc1cc(Cl)c(=O)n(CC)c1-c1ccc(F)cc1F [Compound 274]
control value [1]: > 50%
control value [3]: > 50%

CCNc1cc(Cl)c(=O)n(CC)c1-c1ccc(F)cc1Cl [Compound 34]
control value [1]: > 50%
control value [2]: > 50%
control value [3]: > 50%

CCn1c(-c2ccc(F)cc2C)c(NC)cc(Br)c1=O [compound 376]
control value [1]: > 50%
control value [2]: > 50%
control value [3]: > 50%

CCNc1cc(Br)c(=O)n(CC)c1-c1c(F)cc(F)cc1OC [Compound 74]
control value [1]: > 50%
control value [2]: > 50%
control value [3]: > 50%

CCn1c(-c2ccccc2F)c(N)cc(Br)c1=O [compound 435]
control value [2]: > 50%
control value [3]: > 50%

CCn1c(-c2ccc(F)cc2F)c(NC(C)C)cc(Cl)c1=O [Compound 262]
control value [1]: > 50%
control value [2]: > 50%
control value [3]: > 50%

CCn1c(-c2ccc(F)cc2F)c(N)cc(Cl)c1=O [Compound 255]
control value [2]: > 50%
control value [3]: > 50%

CCn1c(-c2ccccc2F)c(NC)cc(Br)c1=O [compound 437]
control value [2]: > 50%
control value [3]: > 50%

CCn1c(-c2ccc(F)cc2)c(NC)cc(Cl)c1=O [Compound 16]
control value [2]: > 50%
control value [3]: > 50%

CCn1c(-c2ccc(F)c(F)c2)c(N)cc(Cl)c1=O [Compound 151]
control value [2]: > 50%
control value [3]: > 50%

CCNc1cc(Cl)c(=O)n(CC)c1-c1ccc(Br)cc1 [Compound 91]
control value [1]: > 50%
control value [2]: > 50%
control value [3]: > 50%

CCn1c(-c2ccc(F)cc2C)c(NC(C)C)cc(Cl)c1=O [compound 387]
control value [2]: > 50%
control value [3]: > 50%

CCn1c(-c2ccc(F)cc2)c(N(C)C)cc(Cl)c1=O [Compound 18]
control value [2]: > 50%
control value [4]: > 50%
control value [3]: > 50%

CCn1c(-c2ccccc2)c(N)cc(Cl)c1=O [Compound 172]
control value [2]: > 50%
control value [3]: > 50%
